Screening data, single-dose tests

By UniProt entry, the sequences of proteins in these tests, tags left out. Residues count along the entry.
UniProt P9WFT3, whole entry: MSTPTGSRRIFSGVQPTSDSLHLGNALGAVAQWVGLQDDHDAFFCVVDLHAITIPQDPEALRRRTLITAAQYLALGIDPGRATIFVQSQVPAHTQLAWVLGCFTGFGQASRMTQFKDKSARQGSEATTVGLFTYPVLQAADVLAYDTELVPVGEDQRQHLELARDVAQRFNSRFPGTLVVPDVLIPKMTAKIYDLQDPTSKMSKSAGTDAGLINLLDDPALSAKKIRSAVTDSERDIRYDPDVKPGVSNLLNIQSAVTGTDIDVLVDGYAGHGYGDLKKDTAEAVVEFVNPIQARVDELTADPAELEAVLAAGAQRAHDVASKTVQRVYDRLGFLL
UniProt I6X8D2, whole entry: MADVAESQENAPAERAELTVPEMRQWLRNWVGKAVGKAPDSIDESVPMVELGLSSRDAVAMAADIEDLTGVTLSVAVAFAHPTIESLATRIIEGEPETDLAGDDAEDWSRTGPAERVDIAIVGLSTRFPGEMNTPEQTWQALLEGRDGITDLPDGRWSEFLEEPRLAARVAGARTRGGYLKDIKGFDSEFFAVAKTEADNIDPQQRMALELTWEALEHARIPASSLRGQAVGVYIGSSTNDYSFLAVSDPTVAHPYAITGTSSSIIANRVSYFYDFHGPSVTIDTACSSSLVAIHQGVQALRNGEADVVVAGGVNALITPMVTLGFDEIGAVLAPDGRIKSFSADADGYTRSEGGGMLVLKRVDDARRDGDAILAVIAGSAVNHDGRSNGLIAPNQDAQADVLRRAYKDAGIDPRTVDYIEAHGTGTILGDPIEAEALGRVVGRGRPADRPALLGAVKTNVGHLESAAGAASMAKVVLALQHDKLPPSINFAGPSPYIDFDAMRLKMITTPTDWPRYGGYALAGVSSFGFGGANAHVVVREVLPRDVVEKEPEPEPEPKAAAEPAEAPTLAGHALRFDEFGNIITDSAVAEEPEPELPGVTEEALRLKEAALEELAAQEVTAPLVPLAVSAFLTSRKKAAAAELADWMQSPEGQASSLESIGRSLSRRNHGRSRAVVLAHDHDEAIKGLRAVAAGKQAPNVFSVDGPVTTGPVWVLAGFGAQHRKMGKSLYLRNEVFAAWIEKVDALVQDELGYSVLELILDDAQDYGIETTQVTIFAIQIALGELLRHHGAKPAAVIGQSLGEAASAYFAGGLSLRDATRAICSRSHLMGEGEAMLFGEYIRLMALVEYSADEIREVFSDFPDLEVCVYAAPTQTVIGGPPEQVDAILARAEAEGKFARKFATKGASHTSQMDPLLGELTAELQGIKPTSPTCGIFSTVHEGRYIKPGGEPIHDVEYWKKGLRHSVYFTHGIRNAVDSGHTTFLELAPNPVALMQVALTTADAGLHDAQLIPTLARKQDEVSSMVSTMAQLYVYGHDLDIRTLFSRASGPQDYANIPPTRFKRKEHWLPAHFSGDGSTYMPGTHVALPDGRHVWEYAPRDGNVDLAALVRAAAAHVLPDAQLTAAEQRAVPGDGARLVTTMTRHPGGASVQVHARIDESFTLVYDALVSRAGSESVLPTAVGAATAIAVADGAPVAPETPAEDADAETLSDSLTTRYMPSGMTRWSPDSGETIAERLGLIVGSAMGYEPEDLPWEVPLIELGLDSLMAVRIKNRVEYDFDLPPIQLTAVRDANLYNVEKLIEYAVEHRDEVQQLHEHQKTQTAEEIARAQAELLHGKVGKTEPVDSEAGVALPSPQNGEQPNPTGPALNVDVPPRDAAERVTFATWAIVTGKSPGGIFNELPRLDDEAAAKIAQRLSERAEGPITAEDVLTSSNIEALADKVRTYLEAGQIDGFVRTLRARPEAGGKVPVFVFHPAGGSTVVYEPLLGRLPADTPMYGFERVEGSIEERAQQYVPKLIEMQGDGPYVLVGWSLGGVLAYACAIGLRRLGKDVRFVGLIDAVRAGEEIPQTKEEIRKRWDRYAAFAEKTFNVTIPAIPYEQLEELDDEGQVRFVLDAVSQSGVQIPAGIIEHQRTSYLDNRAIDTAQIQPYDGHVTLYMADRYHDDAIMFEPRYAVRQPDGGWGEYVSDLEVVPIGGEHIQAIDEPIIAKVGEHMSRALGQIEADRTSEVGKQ
UniProt A4I591, 1-473: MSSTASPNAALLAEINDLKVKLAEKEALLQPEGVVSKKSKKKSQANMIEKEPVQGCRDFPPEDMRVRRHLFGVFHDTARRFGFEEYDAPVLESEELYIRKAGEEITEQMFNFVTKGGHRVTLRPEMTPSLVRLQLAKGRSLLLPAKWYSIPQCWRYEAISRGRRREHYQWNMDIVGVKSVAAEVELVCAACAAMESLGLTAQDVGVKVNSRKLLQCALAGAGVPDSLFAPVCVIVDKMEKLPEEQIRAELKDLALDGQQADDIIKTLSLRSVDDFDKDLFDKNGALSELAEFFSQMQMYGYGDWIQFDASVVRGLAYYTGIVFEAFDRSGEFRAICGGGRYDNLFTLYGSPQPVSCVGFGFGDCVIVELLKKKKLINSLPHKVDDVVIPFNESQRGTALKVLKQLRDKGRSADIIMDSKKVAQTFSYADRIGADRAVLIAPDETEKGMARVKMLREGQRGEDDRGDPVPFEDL
UniProt Q4DA54, 1-478: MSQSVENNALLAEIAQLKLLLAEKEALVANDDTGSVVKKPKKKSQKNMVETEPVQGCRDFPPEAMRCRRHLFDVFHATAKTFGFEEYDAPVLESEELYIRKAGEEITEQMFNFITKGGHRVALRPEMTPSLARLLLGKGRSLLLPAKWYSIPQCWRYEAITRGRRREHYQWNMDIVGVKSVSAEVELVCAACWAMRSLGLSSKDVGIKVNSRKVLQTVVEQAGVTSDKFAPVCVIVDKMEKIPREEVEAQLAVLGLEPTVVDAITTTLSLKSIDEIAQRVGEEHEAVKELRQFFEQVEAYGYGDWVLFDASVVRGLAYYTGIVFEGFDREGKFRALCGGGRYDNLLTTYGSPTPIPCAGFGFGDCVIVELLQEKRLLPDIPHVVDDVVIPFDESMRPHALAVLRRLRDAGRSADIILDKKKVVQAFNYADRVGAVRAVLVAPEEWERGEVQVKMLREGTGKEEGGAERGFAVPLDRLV

The values are deposited in ChEMBL (CHEMBL3988442, “University of Dundee, Small-Polar-MMV Screening Library” (2021)).

Values are the deposited “Percent Effect”, in %. How 0% and 100% were set is not recorded. Most values in the screen are low, and negative values occur. The compounds are a random part of those screened. A dash means the value is not listed here; it may have been measured.

A: 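Enzyme assay of tryptophanyl-tRNA synthetase; the read-out is not stated. Target: Tryptophan-tRNA ligase, Mycobacterium tuberculosis (UniProt P9WFT3). Compounds at 10 µM. Higher most likely means stronger inhibition; the record gives no direction and few retests gave an IC50. Size under these conditions: about 65,000 compounds, about 64 of them at 50% or above in at least one test.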
B: 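Enzyme assay of the thioesterase domain of polyketide synthase 13; the read-out is not stated. Target: Polyketide synthase Pks13, Mycobacterium tuberculosis (UniProt I6X8D2). Concentration: 30 µM. The record gives no direction; the compounds picked for IC50 retests had high values, so higher reads as stronger inhibition. Of about 67,000 compounds tested this way, about 300 (0.46%) reached 50% or more in at least one test.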
C: 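Histidine-tRNA ligase, Leishmania infantum (UniProt A4I591). Enzyme assay of histidyl-tRNA synthetase; the read-out is not stated. Compounds at 30 µM. Direction is inferred from retests: higher values go with stronger inhibition. The assay is labelled LdHisRS but filed under L. infantum. Size under these conditions: about 69,000 compounds, about 410 of them at 50% or above in at least one test.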
D: 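Histidine-tRNA ligase, Trypanosoma cruzi CL Brener (UniProt Q4DA54). Enzyme assay of histidyl-tRNA synthetase; the read-out is not stated. Tested at 30 µM. The record gives no direction; compounds that gave an IC50 in retests scored well above the rest, so higher reads as stronger inhibition. About 69,000 compounds were tested under these conditions; 0.045% (about 31) showed 50% or more at least once.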

SMILES | A | B | C | D
CC(C)N(C)Cc1cnc2n1CCN(Cc1cccc(C#N)c1)C2 | -2.036% | -13.71% | 20.55% | 6%
CC(C)n1nnc(CC(=O)NCC2(c3ccccc3F)CCOCC2)n1 | -6.911% | 5.302% | 7.246% | -8.333%
Cn1cc(C(=O)N2CC[C@@H]3[C@@H]2CCN3Cc2cccnc2)cn1 | -2.703% | -11.1% | 9.023% | 6.077%
COc1ccc(CCC(=O)NC2CCC(O)CC2)cc1OC (centres undefined) | 1.462% | -3.7% | 10.61% | -3.03%
COc1ccc2c(C)nc(N3CCN([C@H]4CCCC[C@@H]4O)CC3)nc2c1 | -3.865% | 0.3207% | -7.527% | 16.07%
Cc1ccc(-c2nc(CN3CCOC(Cn4cncn4)C3)cs2)o1 (centres undefined) | -6.969% | -23.48% | 12.9% | 6.186%
CN(C)C(=O)c1ccn(-c2ccc3ccccn23)n1 | -4.758% | -10.12% | 26% | 10.34%
Cc1nc(C)c(CC(=O)N2C[C@H]3CC[C@@H]2CN(c2cnccn2)C3)s1 | -2.166% | -17.63% | 18.57% | 2.128%
Cn1cc(S(=O)(=O)N2CCCC2Cn2ccnc2)cn1 (centres undefined) | -1.342% | -13.22% | 11.43% | 7.792%
NC(=O)CN1CCC(C(=O)NCc2ccc3nonc3c2)CC1 | 5.093% | -22.46% | 8.333% | 3.896%
CN(C)C(=O)N1CC(=O)NCC12CCN(C(=O)c1ccco1)C2 (centres undefined) | 5.093% | -16.8% | 11.65% | 2.913%
CC(C)(C)C(=O)N1CCC(c2nc(O)cc(-c3ccccn3)n2)CC1 | -2.592% | -3.587% | 13.89% | -2.703%
CN1CC2(CCNCC2)COc2ccccc2S1(=O)=O | -5.118% | 11.95% | 5.128% | -2.439%
CC(Cn1ccnc1)NC(=O)C1(c2cccc(Cl)c2)CC1 (centres undefined) | -6.789% | -15.11% | 20% | 5.848%
N#Cc1ccccc1C(=O)N1CCC2(CC(=O)NC2=O)C1 (centres undefined) | -4.102% | -5.953% | 9.615% | 3.333%
Cc1noc(C)c1CS(=O)(=O)CC(=O)N(C)Cc1cccc(F)c1 | 1.12% | -8.466% | 15.08% | 11.76%
O=S(=O)(NCC1CCOC1)N1CCc2ccccc2C1 (centres undefined) | 7.284% | -14.55% | 15.56% | 9.524%
COc1cccc(S(=O)(=O)CCN2CCC3(CC2)OCCO3)c1 | -0.5329% | -12.55% | 18.45% | 0.4149%
CC(C)OCCCN(CC(=O)N1CCNCC1)C(=O)c1cccc(Cl)c1 | 4.158% | 6.352% | 28.95% | 3.659%
O=C(NCCCn1nc2ccccn2c1=O)NCc1ccccc1 | -2.825% | 2.169% | 11.4% | 0.8721%
O=S1(=O)C[C@@H]2[C@H](C1)N(S(=O)(=O)N1CCCC1)CCN2Cc1ccccc1 | 0% | -41.07% | 19.17% | 7.895%
CN1CCN(S(=O)(=O)c2ccccc2)Cc2cccnc21 | - | -5.129% | 9.901% | 8.543%
Cc1nn(C)c(N(C)C)c1CNC1CCOc2c(F)cccc21 (centres undefined) | -0.4717% | -3.873% | 16.8% | 4.183%
CC(C)CS(=O)(=O)CC(=O)NC(C)c1nnc2n1CCC2 (centres undefined) | -7.107% | -8.204% | 7.692% | 3.429%
CCOC(=O)[C@]12CCCN(Cc3ccsc3)C[C@H]1CN(CCOC)C2 | -6.858% | -32.43% | 22.81% | 3.279%
CN(C)CCN1CCO[C@H]2CN(Cc3cnn(C)c3)C[C@H]21 | -1.509% | -12.74% | 16.98% | 5.085%
COc1ccc(CN2CCN(CC3CC3)[C@@H]3CS(=O)(=O)C[C@@H]32)cc1C | -2.506% | 3.619% | 12.5% | 7.821%
CCN1CC(COC(=O)c2ccccc2Cl)CC1=O (centres undefined) | 9.185% | -20.84% | 12.5% | 2.762%
O=C([C@@H]1COC[C@H]2CN(C3CCCC3)C[C@H]21)N1CCCCO1 | 5.297% | 28.06% | 2.778% | 5.473%
Cc1ccc(C(=O)NC2CCN(Cc3noc(C(C)C)n3)CC2)s1 | 2.13% | -5.768% | 20% | 1.345%
CCN1C[C@H]2CCN(C(=O)c3cc[nH]n3)CC[C@H]2S1(=O)=O | -3.453% | -31.4% | -43.86% | -39.78%
Cc1csc(CN(C)C2CCN(c3sccc3C#N)C2=O)n1 (centres undefined) | 7.418% | -0.7688% | 6.806% | 6.952%
CN(C)C(=O)c1nc2c(n1C)CCN(Cc1ccccc1)C2 | -5.23% | -49.8% | 5.263% | 8.046%
O=C(c1ccnnc1)N1C[C@@H]2CN(c3ncccn3)C[C@@H]2C1 | 9.881% | 12.91% | -2% | 1.149%
CCC(O)CN1CCN(C(=O)c2cccn2Cc2cccnc2)CC1 (centres undefined) | 13.24% | -23.64% | 7.143% | 1.153%
CC(C)Oc1ncnc2c1CCN(Cc1ccoc1)CC2 | -6.599% | -6.631% | 25% | 3.483%
O=C(Nc1cccn(CC(F)(F)F)c1=O)c1ccc(F)cc1 | 4.438% | 7.693% | 31.43% | -2.597%
CC(C(=O)NC1CC1)N1CCN(Cc2ccn(C)c(=O)c2)CC1 (centres undefined) | -1.471% | -27.79% | 13.89% | 10.26%
Cc1nc(CNC(=O)Nc2ccc3c(c2)CCCN3C)sc1C | -8.452% | -21.24% | 20.69% | 2.618%
CC(C)CC(=O)N1CCCC1c1nccnc1Nc1ncccn1 (centres undefined) | - | 4.445% | 15.94% | 5.495%
Cc1c(C2CCCN(C(=O)c3cccnc3)C2)n2c(nc1=O)CCC2 (centres undefined) | - | 8.543% | 11.46% | 2.128%
Cc1cc(C(O)CCNC(=O)COc2ccccc2C)c(C)o1 (centres undefined) | 0.3799% | -37.53% | 10.43% | 1.031%
CCN1CCC2(CC1)CC(NC(=O)c1c[nH]cn1)c1ccccc1O2 (centres undefined) | -8.585% | - | 22% | 6.186%
CCN(CC1CN(Cc2nccn2CC)CCO1)c1cccnn1 (centres undefined) | 2.39% | -1.418% | 13.39% | 11.67%
O=C(NC1CCCN(c2ccccc2Cl)C1)c1nc(=O)[nH][nH]1 (centres undefined) | 5.286% | 3.914% | 20.41% | 9%
O=C(NCCCc1nc(=O)[nH][nH]1)c1ccc(Cl)cn1 | -2.451% | -16.79% | 23.68% | 1.754%
Cc1cc(C(=O)N2CCCC3(C=Cc4ccccc4O3)CC2)cc(=O)[nH]1 (centres undefined) | 2.249% | -18.57% | 12.5% | 3.191%
c1cnc(NCc2cncc3c2CCN(Cc2ccoc2)C3)nc1 | -5.021% | -14.42% | 11.76% | 0%